PubChem BioAssay AID504784 – Drosophila RNAi Screening Center, 2011

Assay: 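Genome-wide knock-down for genes giving too much or too little stored lipid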 (primary screen)
System: Drosophila Kc167 embryonic cells
Reagent: long dsRNA against Drosophila genes, about 250 ng dsRNA per well
Timing: 4 days
Conditions: cells fed 400 µM oleic acid bound to BSA
Measurement: 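Cells imaged and segmented; ratio of lipid droplet area to nuclear area, log-transformed, then normalised as a B-score over the screen; higher means more stored lipid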
Scale: droplet/nuclear area B-score: higher = more stored lipid (overstorage)
The screen tested about 17,000 reagents; this is an unselected part of those with a known target gene and a result. 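Each column is one replicate's B-score; the combined score over replicates was not deposited, so single values may mislead.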 A plus sign joins genes that one reagent is predicted to hit. Not all columns of the deposit are shown. No sequences are given here.

gene knocked down	dsRNA	droplet/nuclear area B-score, replicate 1	droplet/nuclear area B-score, replicate 2
S6kII	DRSC20645	0.958	0.882
CG12868	DRSC06207	-0.332	0.549
obst-J	DRSC10821	-0.415	0.664
Dim1	DRSC00563	-1.04	-2.11
CG33771	DRSC11718	-0.699	0.145
can	DRSC10664	0.305	2.24
Dad1	DRSC02263	-0.612	-0.224
Sgs3	DRSC11280	-0.74	0.277
CG10950	DRSC06020	0.395	0.31
dpy	DRSC00233	0.163	0.523
dpy	DRSC00234	0.0927	0.855
dpy	DRSC00472	-0.893	0.711
Mco1	DRSC02720	-0.548	-0.303
CG16781	DRSC18117	-1.77	-1.72
CG10898	DRSC14279	7.49	-0.0364
CG31342	DRSC15349	0.000816	-0.425
CG31342	DRSC16246	-0.173	1.88
AANATL5	DRSC05994	1.82	
Eig71Eb	DRSC11149	0.00547	-0.34
Sec5	DRSC00714	-2.4	0.403
CG15020	DRSC08474	-1.63	2.08
CG13511	DRSC04153	0.278	-1.1
Jhbp12	DRSC14621	-1.59	0.466
Cyp6a8	DRSC07384	-0.652	-0.401
nec	DRSC06769	0.119	0.71
dia	DRSC03519	0.0721	0.126
CG31365	DRSC15610	1.94	-0.19
her	DRSC03543	-0.811	-1.84
Ptpmeg	DRSC08684	1.14	-0.257
CG4424	DRSC15576	0.194	1.24
Gasz	DRSC06829	0.513	0.782
CG17568	DRSC02628	-0.518	-0.228
Sos	DRSC03439	1.7	0.602
Atac2	DRSC02053	0.119	0.725
CG9682	DRSC16536	0.522	-0.344
Setx	DRSC10859	1.21	0.156
Gpxl	DRSC06538	3.1	0.121
CG5292	DRSC15763		0.1
Ets96B	DRSC16127	0.31	1.2
Psf3	DRSC18216	-0.565	-2.28
Psf3	DRSC21487	0.0956	-2.76
Prx6c + CG12896 + Prx6b	DRSC06148	4.94	-0.764
Meltrin	DRSC16274	-0.0147	2.07
Meltrin	DRSC21693	-0.477	-0.594
CG9269	DRSC16465	1.01	-0.0106
REPTOR-BP	DRSC02683	0.261	0.458
CG31769	DRSC01361	0.0814	-1.42
Dgk	DRSC05064	-2.63	-1.33
Dgk	DRSC05065	-0.332	-0.061
Dgk	DRSC06171	-0.96	-3.67
Dgk	DRSC06782	-0.111	-0.379
Dgk	DRSC22236	0.377	-6.8
sut1	DRSC07700	-0.75	-2.08
CG14572	DRSC11733	-2.19	0.278
CG10177	DRSC14201	0.669	-0.437
CG4461	DRSC10423	1.45	0.411

Limited to “droplet/nuclear area B-score, replicate 1” (9 entries from above):
Eig71Eb [DRSC11149]	0.00547
Sec5 [DRSC00714]	-2.4
CG15020 [DRSC08474]	-1.63
CG13511 [DRSC04153]	0.278
Jhbp12 [DRSC14621]	-1.59
Cyp6a8 [DRSC07384]	-0.652
nec [DRSC06769]	0.119
dia [DRSC03519]	0.0721
CG31365 [DRSC15610]	1.94
